Reference: the supplement of paper PMC10331698
± gives the standard deviation of the averaged measurements. Most entries show no effect beyond the scatter of the controls.

Experiments:
Assay in all cases: level (log10 ratio to DMSO vehicle control); higher = higher biomarker level / cell amount than vehicle control
[1] = compound: O=C(Cl)C(F)(F)C(F)(F)C(F)(F)C(=O)Cl [Hexafluoroglutaryl chloride]; settings: 2200 nM; in DMSO
Protocol: (§1)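 BioMAP Diversity Plus panel of 12 human primary cell co-culture systems (3C, 4H, LPS, SAg, BT, BF4T, BE3C, CASM3C, HDF3CGF, KF3CT, MyoF, Mphg). Compounds were added 1 h before stimulation and left for 24 h (MyoF 48 h; BT 72 h for soluble read-outs or 6 d for IgG). Biomarkers were read by ELISA, cytotoxicity by SRB, PBMC viability and proliferation by Alamar Blue. Each well value was divided by the mean of 8 DMSO control wells on the same plate and log10 transformed; duplicate blinded samples were tested at 4 concentrations.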

[2] = compound: O=C(O)C(F)(F)C(F)(F)C(F)(F)C(F)(F)C(F)(F)C(F)(F)C(F)(F)C(F)(F)C(F)(F)C(F)(F)C(F)(F)C(F)(F)C(F)(F)F [Perfluorotetradecanoic acid]; settings: in DMSO
Protocol: as §1

[3] = compound: C=CC(=O)OCC(F)(F)C(F)(F)C(F)(F)COC(=O)C=C [1H,1H,5H,5H-Perfluoro-1,5-pentanediol diacrylate]; settings: 2200 nM; in DMSO
Protocol: as §1

[4] = compound: C=CC(=O)OCCC(F)(F)C(F)(F)C(F)(F)C(F)(F)F [2-(Perfluorobutyl)ethyl acrylate]; settings: 2200 nM; in DMSO
Protocol: as §1

[5] = compound: O=C(O)C=C(C(F)(F)F)C(F)(F)F [3,3-Bis(trifluoromethyl)-2-propenoic acid]; settings: in DMSO
Protocol: as §1

Perfluoro-1-iodohexane = compound: FC(F)(F)C(F)(F)C(F)(F)C(F)(F)C(F)(F)C(F)(F)I [Perfluoro-1-iodohexane]; settings: in DMSO
Protocol: as §1

[6] = compound: C=CC(=O)OCCC(F)(F)C(F)(F)C(F)(F)C(F)(F)C(F)(F)C(F)(F)C(F)(F)C(F)(F)F [8:2 Fluorotelomer acrylate]; settings: 2200 nM; in DMSO
Protocol: as §1

[7] = compound: FC(F)(F)C(F)(C(F)(F)F)C(F)(F)C(F)(F)CC1CO1 [3-(Perfluoro-3-methylbutyl)-1,2-propenoxide]; settings: in DMSO
Protocol: as §1

[8] = compound: O=S(=O)(O)C(F)(F)C(F)(F)C(F)(F)C(F)(F)C(F)(F)C(F)(F)F [Perfluorohexanesulfonic acid]; settings: 2200 nM; in DMSO
Protocol: as §1

[9] = compound: FC(F)(I)C(F)(F)C(F)(F)C(F)(F)C(F)(F)C(F)(F)I [1,6-Diiodoperfluorohexane]; settings: 2200 nM; in DMSO
Protocol: as §1

Hexafluoroamylene glycol = compound: OCC(F)(F)C(F)(F)C(F)(F)CO [Hexafluoroamylene glycol]; settings: 2200 nM; in DMSO
Protocol: as §1

[10] = compound: OCCCC(F)(F)C(F)(F)C(F)(F)C(F)(F)C(F)(F)C(F)(F)C(F)(F)F [7:3 Fluorotelomer alcohol]; settings: 2200 nM; in DMSO
Protocol: as §1

[11] = compound: O=S(=O)(O)CCC(F)(F)C(F)(F)C(F)(F)C(F)(F)F [4:2 Fluorotelomer sulfonic acid]; settings: 2200 nM; in DMSO
Protocol: as §1

Test System | level (log10) [1] | level (log10) ([2]; 740 nM) | level (log10) ([2]; 2200 nM) | level (log10) [3] | level (log10) [4] | level (log10) ([5]; 2200 nM) | level (log10) ([5]; 6700 nM) | level (log10) ([5]; 20000 nM) | level (log10) ([5]; 60000 nM) | level (log10) (Perfluoro-1-iodohexane; 2200 nM) | level (log10) (Perfluoro-1-iodohexane; 6700 nM) | level (log10) (Perfluoro-1-iodohexane; 20000 nM) | level (log10) (Perfluoro-1-iodohexane; 60000 nM) | level (log10) [6] | level (log10) ([7]; 740 nM) | level (log10) ([7]; 2200 nM) | level (log10) [8] | level (log10) [9] | level (log10) (Hexafluoroamylene glycol) | level (log10) [10] | level (log10) [11]
MyoF:CD106/VCAM-1 | -0.0055 ± 0.033 | -0.0115 ± 0.00071 | 0.0095 ± 0.00071 | -0.0745 ± 0.00071 | -0.034 ± 0.018 | -0.0545 ± 0.011 | -0.0825 ± 0.00071 | -0.145 ± 0.0021 | -0.291 ± 0.04 | -0.01 ± 0.023 | -0.031 ± 0.016 | -0.102 ± 0.064 | -0.337 ± 0.03 | -0.023 ± 0.0071 | -0.0125 ± 0.0092 | -0.012 | -0.0105 ± 0.022 | -0.101 ± 0.015 | -0.0105 ± 0.015 | -0.0125 ± 0.016 | -0.016
lMphg:CD106/VCAM-1 | -0.0045 ± 0.0021 | -0.0075 ± 0.016 | -0.0275 ± 0.029 | -0.0085 ± 0.019 | -0.0135 ± 0.013 | -0.014 ± 0.0099 | -0.0205 ± 0.005 | -0.025 ± 0.0099 | -0.0935 ± 0.0064 | 0.0125 ± 0.0078 | 0.0085 ± 0.032 | -0.0035 ± 0.018 | -0.003 ± 0.0099 | -0.002 ± 0.0099 | -0.0135 ± 0.032 | 0.0025 ± 0.016 | -0.012 ± 0.02 | -0.0175 ± 0.025 | -0.0095 ± 0.0021 | -0.0135 ± 0.033 | -0.002 ± 0.011
MyoF:Collagen IV | -0.018 ± 0.055 | 0.006 ± 0.03 | -0.0005 ± 0.012 | -0.017 ± 0.025 | 0.0375 ± 0.067 | -0.0225 ± 0.013 | -0.0215 ± 0.029 | -0.055 ± 0.025 | -0.0345 ± 0.028 | -0.0485 ± 0.035 | -0.033 ± 0.027 | -0.031 ± 0.028 | 0.193 ± 0.013 | -0.0135 ± 0.021 | 0.028 ± 0.0057 | 0.0095 ± 0.0078 | -0.0135 ± 0.0078 | 0.0435 ± 0.028 | -0.0075 ± 0.033 | -0.0135 ± 0.054 | 0.0085 ± 0.019
3C:CXCL9/MIG | -0.004 ± 0.0042 | 0.0045 ± 0.0064 | 0.003 ± 0.0057 | 0.005 ± 0.025 | -0.009 ± 0.0099 | -0.006 ± 0.0042 | -0.015 ± 0.017 | -0.004 ± 0.028 | 0.013 ± 0.025 | 0.0075 ± 0.0021 | 0.0045 ± 0.025 | 0.007 ± 0.014 | 0.0075 ± 0.029 | -0.0105 ± 0.015 | -0.0095 ± 0.021 | -0.009 ± 0.0099 | -0.0055 ± 0.026 | 0.0045 ± 0.0021 | -0.0025 ± 0.005 | -0.002 ± 0.011 | 0.0005 ± 0.0021
3C:CD87/uPAR | -0.0135 ± 0.0064 | 0.0625 ± 0.043 | 0.0715 ± 0.054 | -0.001 ± 0.031 | 0.0035 ± 0.036 | 0.0275 ± 0.00071 | 0.0225 ± 0.0035 | 0.014 ± 0.02 | -0.0035 ± 0.013 | -0.015 ± 0.027 | -0.0125 ± 0.032 | 0.004 ± 0.0071 | 0.0285 ± 0.0035 | 0.0075 ± 0.0064 | -0.0125 ± 0.013 | -0.013 ± 0.024 | -0.002 ± 0.0099 | -0.0025 ± 0.026 | -0.006 ± 0.025 | -0.037 ± 0.035 | -0.0205 ± 0.0021
BF4T:Keratin 8/18 | 0.009 ± 0.021 | 0.0045 ± 0.015 | -0.0025 ± 0.00071 | -0.017 ± 0.021 | -0.0135 ± 0.088 | 0.019 ± 0.02 | -0.012 ± 0.0085 | -0.012 ± 0.0028 | 0.007 ± 0.014 | 0.009 ± 0.011 | -0.0075 ± 0.067 | -0.023 ± 0.016 | -0.015 ± 0.088 | 0.009 ± 0.016 | 0.0175 ± 0.0021 | 0.015 ± 0.011 | 0.013 ± 0.0085 | 0.0045 ± 0.019 | 0.007 ± 0.041 | -0.002 ± 0.011 | 0.014 ± 0.023
lMphg:sIL-10 | -0.071 ± 0.044 | -0.0105 ± 0.029 | -0.039 | -0.011 ± 0.023 | 0.0355 ± 0.042 | -0.158 ± 0.0085 | -0.2 ± 0.0071 | -0.325 ± 0.029 | -0.547 ± 0.028 | 0.02 ± 0.013 | -0.0575 ± 0.1 | -0.048 ± 0.0042 | -0.047 ± 0.0057 | -0.078 ± 0.0057 | 0.022 ± 0.023 | -0.0075 ± 0.0078 | 0.0425 ± 0.043 | -0.064 ± 0.065 | 0.0355 ± 0.084 | -0.021 ± 0.0099 | 0.063 ± 0.14
lMphg:CD40 | 0.036 ± 0.065 | -0.037 ± 0.0099 | -0.02 ± 0.071 | -0.022 ± 0.024 | -0.0075 ± 0.026 | -0.036 ± 0.0085 | -0.0255 ± 0.00071 | -0.0545 ± 0.0035 | -0.071 ± 0.014 | 0.014 ± 0.023 | -0.011 ± 0.0071 | -0.0265 ± 0.0035 | -0.0375 ± 0.013 | -0.0195 ± 0.026 | -0.0155 ± 0.0021 | 0.0045 ± 0.012 | -0.0395 ± 0.059 | -0.0035 ± 0.019 | -0.0065 ± 0.0064 | 0.008 ± 0.0014 | -0.012 ± 0.016
4H:CD87/uPAR | 0.006 ± 0.024 | 0.016 ± 0.02 | 0.003 ± 0.04 | -0.043 ± 0.14 | 0.0045 ± 0.052 | -0.039 ± 0.027 | -0.053 ± 0.038 | -0.0455 ± 0.037 | -0.025 ± 0.062 | 0.004 ± 0.013 | -0.0035 ± 0.053 | 0.017 ± 0.062 | 0.036 ± 0.12 | -0.064 ± 0.02 | 0.0075 ± 0.0078 | 0.014 ± 0.016 | -0.023 ± 0.014 | -0.005 ± 0.0085 | 0.003 ± 0.014 | 0.018 ± 0.031 | 0.015 ± 0.017
KF3CT:CD54/ICAM-1 | -0.016 | -0.0265 ± 0.00071 | -0.014 ± 0.016 | -0.0425 ± 0.018 | -0.0095 ± 0.019 | -0.0025 ± 0.019 | -0.007 ± 0.0057 | 0.008 ± 0.0071 | 0.022 ± 0.016 | -0.003 ± 0.014 | 0.001 ± 0.0085 | 0.008 ± 0.021 | 0 ± 0.011 | 0.001 ± 0.025 | 0.0015 ± 0.022 | 0 ± 0.016 | -0.0025 ± 0.015 | -0.035 ± 0.028 | -0.0285 ± 0.0064 | -0.0115 ± 0.021 | -0.014 ± 0.025
BT:sIL-2 | 0.0015 ± 0.0078 | 0.0365 ± 0.018 | 0.062 ± 0.096 | -0.135 ± 0.042 | 0.025 ± 0.018 | -0.113 ± 0.088 | -0.297 ± 0.042 | -0.529 ± 0.02 | -0.648 ± 0.072 | 0.0425 ± 0.0078 | 0.0065 ± 0.052 | -0.0005 ± 0.1 | -0.0005 ± 0.098 | 0.0715 ± 0.0035 | 0.0575 ± 0.039 | 0.0375 ± 0.035 | 0.038 ± 0.093 | -0.018 ± 0.13 | -0.0205 ± 0.04 | 0.0195 ± 0.05 | -0.0345 ± 0.047
3C:CD106/VCAM-1 | -0.0145 ± 0.033 | 0.0065 ± 0.005 | -0.003 ± 0.0085 | -0.032 ± 0.0042 | -0.0235 ± 0.0064 | -0.0455 ± 0.0078 | -0.0575 ± 0.03 | -0.0805 ± 0.025 | -0.157 ± 0.017 | 0.009 ± 0.0071 | 0.003 ± 0.024 | 0.0075 ± 0.018 | 0 ± 0.047 | -0.012 ± 0.0014 | -0.0145 ± 0.005 | -0.0155 ± 0.0021 | -0.03 ± 0.048 | -0.0235 ± 0.0078 | 0.0105 ± 0.0078 | 0 ± 0.0099 | 0.0075 ± 0.019

Taken from above.
level (log10) (Perfluoro-1-iodohexane; 20000 nM) with MyoF:CD106/VCAM-1 reads -0.102 ± 0.064
level (log10) (Perfluoro-1-iodohexane; 6700 nM) with lMphg:CD40 reads -0.011 ± 0.0071
